Laboratory results reported in PMC4102245, “A molecular model for the role of SYCP3 in meiotic chromosome organisation” (eLife, 2014).
These are yes or no findings as the source states them, for the method shown. Some entries that bind do so weakly or less than the wild type.

Target: SYCP3_(Core) (human SYCP3 amino acids 66–230) (human) (UniProt Q8IZU3)
Experiment: crystal structure; hanging drop, 100 mM Hepes pH 7.5, 100 mM NaCl, 13.0% PEG3350, 18°C; iodide SAD at 2.41 Å and native at 2.24 Å; two tetramers in the asymmetric unit; both purified

binding: binds
B1: SYCP3_(Core) (human SYCP3 amino acids 66–230) (domain or fragment, UniProt Q8IZU3 66-230, looked up)
chain: MGGEVQNMLEGVGVDINKALLAKRKRLEMYTKASLKTSNQKIEHVWKTQQDQRQKLNQEYSQQFLTLFQQWDLDMQKAEEQEEKILNMFRQQQKILQQSRIVQSQRLKTIKQLYEQFIKSMEELEKNHDNLLTGAQNEFKKEMAMLQKKIMMETQQQEIASVRKS
notes: Synaptonemal complex protein 3 (SYCP3), human, Swissprot Q8IZU3, amino acids 66-230; Cloned in pHAT4 with an N-terminal TEV-cleavable His6 tag; homotetramer by SEC-MALS, AUC and crystal structure; also called SYCP_(Core); not shown: His6, N-terminal, cleaved
